Results reported in article PMC4434539.
These are yes or no findings as the source states them, for the method shown. In cells and extracts the contact can be indirect. Here binding means that the protein was enriched with, or labelled near, the bait; the list need not be complete. For some assays here: A no says only that the protein was not detected with the bait. Tags and fused reporters may be left off the sequences shown. Values belong to the binder of their own block, whether it stands above or below them.

Experiments:
[1] = target: T1, Mic27-EGFP (S. cerevisiae) (UniProt P50945); test: affinity purification with mass spectrometry; Mic27-EGFP or Mic60-EGFP purified with α-GFP MicroBeads from lysates of wild type cells (Mic27-EGFP also from wild type rho^0, ∆crd1, ∆mic60 and ∆mic19 cells; Mic60-EGFP also from ∆mic19 cells); lysate cross-linked with 1 mM DSP, 1% digitonin; on-bead trypsin digestion, LC-MS/MS
T1 sequence: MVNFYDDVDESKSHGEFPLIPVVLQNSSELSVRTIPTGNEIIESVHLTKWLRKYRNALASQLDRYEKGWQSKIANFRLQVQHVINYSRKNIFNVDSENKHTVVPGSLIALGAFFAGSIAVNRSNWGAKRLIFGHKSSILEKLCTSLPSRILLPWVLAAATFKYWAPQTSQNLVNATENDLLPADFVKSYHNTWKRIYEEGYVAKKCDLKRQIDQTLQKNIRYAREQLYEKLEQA

[2] = target: T1, Mic27-EGFP (S. cerevisiae); test: affinity purification with mass spectrometry; Mic27-EGFP purified with α-GFP MicroBeads from cross-linked extracts of ∆mic60 ∆crd1 cells (no cardiolipin synthesis); 1 mM DSP, 1% digitonin; LC-MS/MS
[3] = target: T1, Mic27-EGFP (S. cerevisiae); test: affinity purification with mass spectrometry; Mic27-EGFP purified with α-GFP MicroBeads from lysate of ∆mic60 rho^0 cells (no mtDNA); cross-linked with 1 mM DSP, 1% digitonin; LC-MS/MS
[4] = target: T2, Mic60-FLAG (S. cerevisiae) (UniProt P36112); test: affinity purification with mass spectrometry; ∆MICOS cells expressing Mic60-FLAG and untagged Mic19, or Mic19-FLAG and untagged Mic60, from their endogenous loci; lysate cross-linked with 1 mM DSP, 1% digitonin; α-FLAG antibody and protein G beads; on-bead trypsin digestion, LC-MS/MS
T2 sequence: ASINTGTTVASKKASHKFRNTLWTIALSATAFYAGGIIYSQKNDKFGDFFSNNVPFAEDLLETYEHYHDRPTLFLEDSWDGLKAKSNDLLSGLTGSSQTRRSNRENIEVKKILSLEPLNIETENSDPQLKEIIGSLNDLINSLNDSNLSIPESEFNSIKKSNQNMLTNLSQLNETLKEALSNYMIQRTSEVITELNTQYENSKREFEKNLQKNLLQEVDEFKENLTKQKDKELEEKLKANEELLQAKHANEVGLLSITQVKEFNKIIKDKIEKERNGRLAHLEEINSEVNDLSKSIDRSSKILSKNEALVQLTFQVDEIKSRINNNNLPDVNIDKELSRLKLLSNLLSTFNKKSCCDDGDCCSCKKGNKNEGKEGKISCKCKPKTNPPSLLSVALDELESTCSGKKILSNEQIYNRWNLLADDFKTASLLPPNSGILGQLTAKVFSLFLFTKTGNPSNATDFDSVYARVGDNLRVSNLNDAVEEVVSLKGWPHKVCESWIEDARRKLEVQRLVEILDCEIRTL

[5] = target: T3, Mic19-FLAG (S. cerevisiae) (UniProt P43594); test: as above
T3 sequence: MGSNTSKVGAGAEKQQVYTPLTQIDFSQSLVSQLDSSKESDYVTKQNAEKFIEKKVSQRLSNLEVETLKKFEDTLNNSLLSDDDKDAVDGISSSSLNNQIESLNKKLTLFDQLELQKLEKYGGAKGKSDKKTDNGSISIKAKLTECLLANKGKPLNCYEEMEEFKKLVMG

B2: Mic10 (protein, UniProt Q96VH5 1-97)
chain: MSEQAQTQQPAKSTPSKDSNKNGSSVSTILDTKWDIVLSNMLVKTAMGFGVGVFTSVLFFKRRAFPVWLGIGFGVGRGYAEGDAIFRSSAGLRSSKV
binding [1]: binds | binding [2]: no binding (only in ∆mic60 ∆crd1 cells) | binding [3]: no binding (only in ∆mic60 rho^0 cells)

B3: Mic12 (protein, UniProt P38341 1-106)
chain: MSKLGPLARSVKWTLSVGVIGSVFYLYRYSNNGYFYDHDATWLKQDHQVQDLVDRKEVVPGETRNRKLVVTDDGTAWSRTMGESIKDIWNEQIRNSVDWIYSWGKN
binding [1]: binds | binding [2]: no binding (only in ∆mic60 ∆crd1 cells) | binding [3]: no binding (only in ∆mic60 rho^0 cells)

Other lines, results leading:

binding [1]: binds | binding [2]: no binding (only in ∆mic60 ∆crd1 cells)
B1: Mic26 (protein, UniProt P50087 1-233)
chain: MTKDFYRQLDPVEEKIVPPENAIVISSEAKEATVNEKEAKQGVLSQRVMKYIGENELVDGISVRDPDYLKRFFNERRKQFSAKWDKVTNKIDDIAGRYYAREESFTSTIASLHTDPNERLIPGLLSILVASMTGSVLARRRTWLLRATMPIILGSCCFAYAMPTTFRNTMGLIHNLEMNTFPHFTERQDRVWKETKRLSTASVQYYYDAKKWLNKDVEKTGNAIKNWTGVNVK

binding [1]: binds | binding [4]: binds
B4: Mic19 (protein, UniProt P43594 1-170)
chain: T3 sequence

binding [5]: binds
B5: Mic60 (protein, UniProt P36112 18-540)
chain: T2 sequence
